# Assay results as given in US6642355B2, “Endothelin-antagonizing peptide” (priority 1991, dated 2003).
# At least one peptide structure holds a part that was inferred or is arguable (an end, a ring closure or a residue). For at least one compound, name, drawing or mass did not settle the structure.
# System: endothelin-1
# Experiment: Effect on lowering intracellular guanosine-3',5'-cyclic monophosphate concentration increased by endothelin
# Type: cell-based
# Conditions: 3 μg/ml compound
structure (smiles),measurement,value
C[C@@H]1NC(=O)[C@H]([C@@H](C)O)NC(=O)CNC(=O)[C@H](Cc2c[nH]cn2)NC(=O)[C@H](Cc2c[nH]c3ccccc23)NC(=O)[C@H](CC(N)=O)NC(=O)CNC(=O)C[C@@H](C(=O)N[C@@H](Cc2c[nH]c3ccccc23)C(=O)N[C@@H](Cc2ccccc2)C(=O)N[C@@H](Cc2ccccc2)C(=O)N[C@@H](CC(N)=O)C(=O)N[C@@H](Cc2ccc(O)cc2)C(=O)N[C@@H](Cc2ccc(O)cc2)C(=O)N[C@@H](Cc2c[nH]c3c(O)cccc23)C(=O)O)NC(=O)[C@@H]2CCCN2C1=O [Compound I-2],"amount of increase in intracellular guanosine-3',5'-cyclic monophosphate concentration relative to that due to only 1 nM endothelin",17%
